Broadly, the apparent Kd is a dissociation constant that holds for the conditions of the assay.

The values below come from paper PMC10163288.

The list shows a part of the results.

First the molecules themselves.
B1: il10ra_site1_normal_mot_HHH_b2_06199_000000213_0001_1_17_H_._HHH_b1_04793_0001_0000300022_0000001_0_af2pred_0001 (protein)
chain: SSSSDKLVELTLKFVELLEREGDPEARRAAELLLRAAADIAKRLNDEELLEKIEQLLEELSSSSS
B2: il10ra_site1_sap_18_mot_HHH_b1_08616_000000009_0001_1_19_H_._HHH_b1_01800_0001_0000100007_0000001_0_0001 (protein)
chain: SSSSSEEDREVYELSREAVELDSDGNPEEARKVLEEAEELAREANNVLFLWIIEWLLRMLDSSSS
B3: il10ra_site1_normal_mot_HHH_b1_02997_000000220_0001_39_52_H_._HHH_b1_03750_0001_0000400038_0000001_0_1_af2pred_0001 (protein)
chain: SSSSSSDRLKRILELLRRALRIDDEEEAREIVEEAIELAQEAGNKQLLRLAEFILRNLSSSSSSS
B4: il10ra_site1_normal_mot_HHH_b1_04065_000000255_0001_41_56_H_._HHH_b2_01051_0001_0000500037_0000001_0 (protein)
chain: SSSSSDEHEEEVKELLEEAEKIDDDHERSQVLFRALRRAWEARDKELLREVDEVAIRLYHSSSSS
B5: il10ra_site1_sap_23_mot_HHH_b2_07521_000000141_0001_20_37_H_._HHH_b2_00924_0001_0000400022_0000001_0_0001_af2pred_dldesign_0_af2pred (protein)
chain: SSSSSKYEARQKTIELIKEASELEDKAEATKKVEEAVKLAKEANDKILEYTATYLLSKLKSSSSS
B6: il10ra_site1_sap_18_mot_HHH_b1_02062_000000185_0001_1_20_H_._HHH_b1_07805_0001_0000400025_0000001_0_0001_af2pred_dldesign_0_af2pred (protein)
chain: SSSSSEHEELVELIRKAAELYSEGKLEEAKETAEKAIELAKKLGDEVALYNAEYLLSKIESSSSS
B7: il10ra_site1_sap_24_mot_HHH_b2_01310_000000089_0001_41_55_H_._HHH_b2_00454_af2_0001_0000300016_0000001_0_0001 (protein)
chain: SSSSDAAQRVYELLREAVEALHEGDKEEAEEILREARELAEEANDMVMLMVIEMLERLIEDSSSS
B8: il10ra_site1_normal_mot_HHH_b2_07579_000000275_0001_1_19_H_._HHH_b1_00336_af2_0001_0000100014_0000001_0 (protein)
chain: SSSSDTQEVIELIREAAELLQNGNPEEAKKVLEEAKEIAEELNNFVARFAVEHLLRDIERLSSSS
B9: il10ra_site1_sap_17_mot_HHH_b2_01656_000000035_0001_1_20_H_._HHH_b1_08629_af2_0001_0000400021_0000001_0_0001_af2pred_0001 (protein)
chain: SSSSSAEEIVEEAKEEAEEARRQGNPEEAFEILLRALLLVAKLNNPEEARKLSQLLWELSRSSSS
B10: il10ra_site1_sap_26_mot_HHH_b1_01513_af2_000000021_0001_1_16_H_._HHH_b2_03098_af2_0002_0000600008_0000001_0_0001_af2pred_0001 (protein)
chain: SSSSSKSREVVELLRRALELAQQGNPEEAEELLEEARKLAEELNSPLLKHAVKAAERVVKGSSSS
B11: il10ra_site1_sap_20_mot_HHH_b2_03425_000000200_0001_22_39_H_._HHH_b1_07284_af2_0001_0000400022_0000001_0_0001_af2pred_0001 (protein)
chain: SSSSTEAERVRELLRRVAELLRKGNPEEAREVLREALELAEELGNLALEIAARFLEEIINSSSSS
B12: il10ra_site1_normal_mot_HHH_b2_01447_af2_000000258_0001_1_20_H_._HHH_b2_03594_0001_0000500068_0000001_0_af2pred_0001 (protein)
chain: SSSSSQEVIELLREAVELLNKGDPEEAERIAEEALELAEEAGNPVLEVIARFLLEHIRRLGSSSS
B13: il10ra_site1_sap_24_mot_0eddeacbb14b769e73e254714f31e2f9_0001_af2_000000127_0001_37_51_H_._HHH_b2_04293_0001_0000300035_0000001_0_0001 (protein)
chain: SSSSDASREVYELMRRAVEADLDGNPEEAEELAEEALELAERANNPFLRFLAESLLRMIRGSSSS
B14: il10ra_site1_sap_21_mot_HHH_b2_02694_000000228_0001_1_18_H_._HHH_b1_05849_0001_0000500014_0000001_0_0001 (protein)
chain: SSSSDDEKEVRELLEEAEEAEEEGDHDLVYELLKRAIEVATKSNDPELARLVMEFLHEWISSSSS
B15: il10ra_site1_normal_mot_HHH_b1_05056_000000217_0001_1_20_H_._HHH_b2_00620_0001_0000100002_0000003_0 (protein)
chain: SSSSDEEEVEEIEEKIERAIEEGNEEEALELLLRALRLAYELRDEELLRRLWELVRLVADSSSSS
B16: il10ra_site1_normal_mot_HHH_b2_07145_000000158_0001_24_40_H_._HHH_b1_07887_0001_0000100009_0000001_0 (protein)
chain: SSSSTEELFEKVRRLIKEAVELYRNGNPEEARRLLEELREELEELGNQALLWSVEHLLRLLSSSS
B17: il10ra_site1_normal_mot_HHH_b1_00566_000000151_0001_22_39_H_._HHH_b1_00313_af2_0001_0000100003_0000002_0_af2pred_0001 (protein)
chain: SSSSSEEEEIAKKVAEASRLAKERGDEEVVEELFQLLAEAFAKGDPELFEEVARLAEEFLSSSSS
B18: il10ra_site1_normal_mot_HHH_b2_08265_af2_000000206_0001_22_38_H_._HHH_b1_07741_af2_0001_0000100003_0000002_0 (protein)
chain: SSSSDEEQERLEELIEELEKLLEEGDQQKVIHILWELARLAAELNDEEALQIAQRVSRHLSSSSS
B19: il10ra_site1_sap_21_mot_HHH_b2_08186_000000021_0001_43_56_H_._HHH_b1_00499_af2_0001_0000400004_0000001_0_0001 (protein)
chain: SSSSDLKEYVEIARHFAEAALKNGTPEMAERIMELLLEALRHAGNPELVEEAEELLEEIQNSSSS
B20: il10ra_site1_normal_mot_HHH_b2_07440_af2_000000021_0001_1_18_H_._HHH_b2_06670_0001_0000100006_0000001_1 (protein)
chain: SSSSDLLEEVLELSREAFRLALRGNPEEAKRVLEEASELAEEGNNPRLLRVIEDLLQVIDSSSSS
B21: il10ra_site1_sap_21_mot_ems_3hM_3349_000000296_0001_25_42_H_._ced5346996f09c56612ad601d3ba6007_0001_1_0001_0000600011_0000002_0_0001_af2pred_0001 (protein)
chain: SSSSTEEDNKRAVEILLEAAEQIEDPERRKRALRFAKFAAEEMGDEELEELVEEVEERLRSSSSS
B22: il10ra_site1_sap_9_mot_HHH_b2_04251_af2_000000037_0001_42_56_H_._HHH_b1_02006_0001_0000800040_0000001_0_0001 (protein)
chain: SSSSDELEEYAEIAKHFIEAAVESGNPKLAERIARRAAEALENAGNPELAEEVRELIEELLSSSS
B23: il10ra_site1_sap_19_mot_HHH_b1_06789_af2_000000041_0001_1_20_H_._HHH_b1_06129_0001_0000400024_0000001_0_0001_af2pred_0001 (protein)
chain: SSSSDSQEVIKLIREAIELLRNGNPEEAQEVLERAREIAEEANNLALRFIVEALLRRIEEQSSSS
B24: il10ra_site1_sap_32_mot_HHH_b2_05766_000000267_0001_1_20_H_._HHH_b1_08312_af2_0001_0000100006_0000002_0_0001 (protein)
chain: SSSSTEEEIEKLLEELERAIEEGDKELFSELALRILRLIYHAGDAELLRELWRLLKEAVESSSSS

This assay addresses il10ra, Q13651. In words: yeast display titration.
As to B1, the “apparent Kd” value was “inactive: no binding seen”.
The value for B2 was “inactive: no binding seen”; that for B3 was “inactive: no binding seen”.
The result for B4 reads inactive: > 719 nM; that for B5, “inactive: no binding seen”; that for B6, “inactive: no binding seen”.
With B7, the “apparent Kd” value is “inactive: no binding seen”.
With B8, the “apparent Kd” value was “inactive: no binding seen”.
On to B9, for which the “apparent Kd” value is “inactive: no binding seen”.
Regarding B10, the “apparent Kd” value is “inactive: no binding seen”.
The result for B11 reads “inactive: no binding seen”; that for B12, “inactive: no binding seen”; that for B13, “inactive: no binding seen”.
The result for B14 reads inactive: > 464 nM.
Regarding B15, the “apparent Kd” value was “inactive: no binding seen”.
Consider B16, for which the “apparent Kd” value is “inactive: no binding seen”.
Consider B17, for which the “apparent Kd” value was “inactive: no binding seen”.
The value for B18 was “inactive: no binding seen”; that for B19 was “inactive: no binding seen”.
The value for B20 was “inactive: no binding seen”; that for B21 was “inactive: no binding seen”.
As to B22, the “apparent Kd” value is “inactive: no binding seen”.
The value for B23 was “inactive: no binding seen”; that for B24 was “inactive: no binding seen”.
